Here are results for 2 substances from paper PMC10157730.

Sequences of proteins named here, by UniProt entry; tags and fusion partners are left off.
UniProt P40763: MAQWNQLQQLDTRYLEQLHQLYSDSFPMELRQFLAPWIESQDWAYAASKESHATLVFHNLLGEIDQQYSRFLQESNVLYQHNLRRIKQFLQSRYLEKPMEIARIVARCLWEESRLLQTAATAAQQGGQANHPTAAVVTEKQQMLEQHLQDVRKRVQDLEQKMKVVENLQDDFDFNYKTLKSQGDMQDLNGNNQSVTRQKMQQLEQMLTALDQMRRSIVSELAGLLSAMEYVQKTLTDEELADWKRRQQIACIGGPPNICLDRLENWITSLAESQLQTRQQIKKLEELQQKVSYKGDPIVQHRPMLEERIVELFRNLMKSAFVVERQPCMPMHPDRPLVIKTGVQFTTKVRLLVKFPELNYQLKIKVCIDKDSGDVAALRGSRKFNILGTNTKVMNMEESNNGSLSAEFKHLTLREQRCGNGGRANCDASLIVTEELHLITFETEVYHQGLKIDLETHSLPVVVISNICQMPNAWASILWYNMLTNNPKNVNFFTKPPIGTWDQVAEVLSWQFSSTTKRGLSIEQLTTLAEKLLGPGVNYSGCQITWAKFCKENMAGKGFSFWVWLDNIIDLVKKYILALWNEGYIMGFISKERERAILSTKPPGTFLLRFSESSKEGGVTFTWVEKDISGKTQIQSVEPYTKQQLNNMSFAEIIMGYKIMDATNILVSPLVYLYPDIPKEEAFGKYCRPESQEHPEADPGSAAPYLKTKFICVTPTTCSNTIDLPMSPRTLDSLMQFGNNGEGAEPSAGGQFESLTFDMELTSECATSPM
UniProt P52631: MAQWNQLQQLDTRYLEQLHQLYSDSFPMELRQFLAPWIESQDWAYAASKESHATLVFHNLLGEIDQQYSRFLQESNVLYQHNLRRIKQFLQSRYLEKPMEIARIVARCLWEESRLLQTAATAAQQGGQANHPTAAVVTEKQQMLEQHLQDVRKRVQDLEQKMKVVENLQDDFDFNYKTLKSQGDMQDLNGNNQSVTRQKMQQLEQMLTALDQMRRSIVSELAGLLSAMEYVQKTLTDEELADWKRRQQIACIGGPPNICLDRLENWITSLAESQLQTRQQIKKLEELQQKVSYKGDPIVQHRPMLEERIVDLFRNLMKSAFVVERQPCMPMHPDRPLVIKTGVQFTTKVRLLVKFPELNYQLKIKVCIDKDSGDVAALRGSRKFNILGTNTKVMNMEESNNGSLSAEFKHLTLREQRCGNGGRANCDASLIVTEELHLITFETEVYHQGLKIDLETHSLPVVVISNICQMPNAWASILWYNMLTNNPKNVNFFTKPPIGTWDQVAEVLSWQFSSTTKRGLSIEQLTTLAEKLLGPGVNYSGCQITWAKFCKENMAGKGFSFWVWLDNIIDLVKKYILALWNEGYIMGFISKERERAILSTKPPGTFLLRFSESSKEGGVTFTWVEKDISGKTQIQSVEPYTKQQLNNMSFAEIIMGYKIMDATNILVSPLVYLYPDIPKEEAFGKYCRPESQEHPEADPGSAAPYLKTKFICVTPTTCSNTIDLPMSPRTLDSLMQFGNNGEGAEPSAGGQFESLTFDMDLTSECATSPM

The target of test [1] is T1, Flag-tagged OTUD1 expressed in HEK-293T cells (UniProt Q5VV17).
T1 sequence: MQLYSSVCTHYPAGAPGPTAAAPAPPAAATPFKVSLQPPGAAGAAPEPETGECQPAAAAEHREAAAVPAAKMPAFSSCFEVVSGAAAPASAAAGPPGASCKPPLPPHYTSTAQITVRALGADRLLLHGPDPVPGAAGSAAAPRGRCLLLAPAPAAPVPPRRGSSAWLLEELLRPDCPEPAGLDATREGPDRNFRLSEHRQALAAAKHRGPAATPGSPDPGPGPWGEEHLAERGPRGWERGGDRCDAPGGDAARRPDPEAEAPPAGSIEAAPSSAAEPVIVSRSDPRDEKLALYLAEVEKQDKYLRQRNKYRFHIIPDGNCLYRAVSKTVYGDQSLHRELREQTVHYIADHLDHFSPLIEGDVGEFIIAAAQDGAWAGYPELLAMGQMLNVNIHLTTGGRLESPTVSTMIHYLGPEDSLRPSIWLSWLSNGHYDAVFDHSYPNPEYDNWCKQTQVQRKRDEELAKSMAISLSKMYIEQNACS
The test can be described thus: co-IP; HEK-293T transfected with Flag-tagged OTUD1; lysates immunoprecipitated with anti-OTUD1, STAT3 detected by immunoblotting; IgG control. For orientation: Immunoblotting shows a protein as a band on a membrane.

For test [2], the target named is T2, Flag-tagged OTUD1 expressed in neonatal rat ventricular myocytes (UniProt Q5VV17).
T2 sequence: T1 sequence
The test can be described thus: co-IP; NVRMs transfected with Flag-tagged OTUD1; lysates immunoprecipitated with anti-OTUD1, STAT3 detected by immunoblotting; IgG control.

These are yes or no findings as the source states them, for the method shown. In cells and extracts the contact can be indirect. Some entries that bind do so weakly or less than the wild type. Sequences can lack the tags named with a protein.

For “STAT3, endogenous in HEK-293T cells (from UniProt P40763 1-770)”, in test [1], the binding entry was “binds”.

As for “signal transducer and activator of transcription 3 (STAT3), endogenous in neonatal rat ventricular myocytes (from UniProt P52631 1-770)”, the binding result in test [2] was “binds”.
